Counter-ions that a name gives are not always drawn. The list shows a part of the results. Baselines shift from plate to plate; read single values as rough.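 A clonal Drosophila S2 line expresses Smoothened bearing circularly permuted GFP in its cytoplasmic tail; Hh-driven phosphorylation opens an inhibitory loop, making it fluoresce. Flow cytometry measured per-cell fluorescence, normalized to Hh-stimulated untreated cells. Hits were inhibitor groups with shared pathway targets that consistently shifted fluorescence, not individual compounds.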
Test system: Drosophila S2 cl14 SmoIP sensor cells
Assay: normalized SmoIP GFP fluorescence (untreated unstimulated = 0%, untreated Hh-stimulated = 100%); higher = more Smo activation sensor fluorescence
Conditions: compound concentration: 15 uM, 24 h
[1] = stimulation: Hh conditioned medium (+Hh)
[2] = stimulation: mock conditioned medium (-Hh)

| Compound | normalized SmoIP GFP fluorescence [1] | normalized SmoIP GFP fluorescence [2] |
| --- | --- | --- |
| O=C(O)c1cccc(-c2noc(-c3ccccc3F)n2)c1 | 124% | -0.264% |
| NC(=O)c1ccc(N(C(N)=O)c2c(F)cccc2F)nc1-c1ccc(F)cc1F | 108% | -6.06% |
| O=C1NC(=O)/C(=C/c2ccc3nccc(-c4ccncc4)c3c2)S1 | 79.7% | 12.4% |
| O=C(Nc1cccc2cccnc12)c1ccc(N2C(=O)[C@@H]3[C@H](C2=O)[C@@H]2C=C[C@H]3C2)cc1 [iwr-1-endo] | 114% | 5.47% |
| O=C1NC(=O)C(=Cc2ccc(-c3ccc(F)cc3)o2)S1 (stereo in doubt) | 139% | 7.86% |
| O[C@H](CNC[C@@H](O)[C@H]1CCc2cc(F)ccc2O1)[C@@H]1CCc2cc(F)ccc2O1 [Nebivolol(Bystolic)] | 174% | 70.3% |
| Nc1nccc2c1ncn2[C@@H]1C=C(CO)[C@@H](O)[C@H]1O [3-deazaneplanocin-a-dznep] | 154% | 4.28% |
| O=C(O)CCCCC(CCSCc1ccccc1)SCc1ccccc1 (centres undefined) | 125% | 2.86% |
| CC(=O)O[C@]1(C(C)=O)CC[C@H]2[C@@H]3C=C(Cl)C4=CC(=O)[C@@H]5C[C@@H]5[C@]4(C)[C@H]3CC[C@@]21C [cyproterone-acetate] | 190% | 31.3% |
| CCCC(C)NC(=O)c1ccc(Cl)c(Cl)c1 (centres undefined) | 107% | 39.5% |
| O=c1cc(-c2ccc(O)cc2)oc2cc(O)cc(O)c12 [Apigenin] | 122% | -13.2% |
| CC(=O)OCC(=O)NCCCOc1cccc(CN2CCCCC2)c1 [roxatidine-acetate-hcl] | 115% | -8.77% |

Entries of single compounds as entered above. Order of values: normalized SmoIP GFP fluorescence [1] | normalized SmoIP GFP fluorescence [2]
O=C1NC(=O)/C(=C/c2ccc3nccc(-c4ccncc4)c3c2)S1 in the list: 79.7% | 12.4%
CC(=O)O[C@]1(C(C)=O)CC[C@H]2[C@@H]3C=C(Cl)C4=CC(=O)[C@@H]5C[C@@H]5[C@]4(C)[C@H]3CC[C@@]21C [cyproterone-acetate] in the list: 190% | 31.3%
